The target in the test is human cytomegalovirus TRS1 (HCMV_(TRS1)), His-tagged (human cytomegalovirus (HCMV)) (UniProt P09695). Kind of test: pull-down; HeLa PKR KO cells co-transfected with untagged PKR and His-tagged TRS1; lysates (50mM NaH2PO4, 300mM NaCl, 10mM imidazole, 0.75% Tween 20) incubated with NiNTA agarose 2 hours at 4°C, washed 3x with 20mM imidazole; western blot with anti-PKR and anti-His.

Protein sequences, listed by entry. Tags and fused reporters are not part of them.
UniProt P09695: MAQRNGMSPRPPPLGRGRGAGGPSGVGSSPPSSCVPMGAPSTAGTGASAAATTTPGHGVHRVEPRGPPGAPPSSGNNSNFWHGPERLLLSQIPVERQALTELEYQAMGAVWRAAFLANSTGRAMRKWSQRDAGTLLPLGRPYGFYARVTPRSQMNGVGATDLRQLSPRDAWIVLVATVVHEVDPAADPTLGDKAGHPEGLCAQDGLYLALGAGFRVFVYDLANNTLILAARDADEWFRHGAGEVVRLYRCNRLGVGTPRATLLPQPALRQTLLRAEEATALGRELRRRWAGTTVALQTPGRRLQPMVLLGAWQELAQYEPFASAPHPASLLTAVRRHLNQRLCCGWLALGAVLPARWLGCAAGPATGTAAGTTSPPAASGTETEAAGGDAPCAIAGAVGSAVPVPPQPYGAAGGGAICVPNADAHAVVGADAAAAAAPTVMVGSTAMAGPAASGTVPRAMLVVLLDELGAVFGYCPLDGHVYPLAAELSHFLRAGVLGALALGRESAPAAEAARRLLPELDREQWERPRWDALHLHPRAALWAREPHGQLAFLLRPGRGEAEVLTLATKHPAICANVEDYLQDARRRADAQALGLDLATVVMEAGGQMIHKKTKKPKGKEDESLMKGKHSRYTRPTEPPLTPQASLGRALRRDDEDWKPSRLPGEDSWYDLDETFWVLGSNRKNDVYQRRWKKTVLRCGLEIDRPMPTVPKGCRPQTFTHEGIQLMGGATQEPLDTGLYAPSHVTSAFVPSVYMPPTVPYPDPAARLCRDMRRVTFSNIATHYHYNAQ
UniProt P19525: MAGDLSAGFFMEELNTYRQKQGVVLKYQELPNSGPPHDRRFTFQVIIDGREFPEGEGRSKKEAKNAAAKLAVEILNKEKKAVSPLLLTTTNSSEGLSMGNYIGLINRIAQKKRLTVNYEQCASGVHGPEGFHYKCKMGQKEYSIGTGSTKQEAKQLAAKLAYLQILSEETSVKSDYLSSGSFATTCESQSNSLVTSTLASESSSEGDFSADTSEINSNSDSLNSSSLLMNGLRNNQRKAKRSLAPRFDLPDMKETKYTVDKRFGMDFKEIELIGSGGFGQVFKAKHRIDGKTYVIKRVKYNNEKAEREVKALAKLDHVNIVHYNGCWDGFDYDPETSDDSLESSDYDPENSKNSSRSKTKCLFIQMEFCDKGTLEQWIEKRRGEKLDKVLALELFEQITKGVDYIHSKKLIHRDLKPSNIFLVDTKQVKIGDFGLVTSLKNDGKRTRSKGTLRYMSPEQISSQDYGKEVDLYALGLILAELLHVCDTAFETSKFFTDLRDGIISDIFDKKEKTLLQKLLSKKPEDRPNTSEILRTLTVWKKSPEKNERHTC

Results are given in words; binding and its absence hold for the method and conditions named. Binding seen in cells or lysates may run through a third protein. Some binding calls cover weakened binding; strength is not graded here.

On to “human protein kinase R (HuPKR), wild type (from UniProt P19525 1-551) (enzyme)”, for which the binding entry is “binds”.

These data come from PMC5079575.
